Data from publication PMC6692328.
Results are given in words; binding and its absence hold for the method and conditions named. Binding seen in cells or lysates may run through a third protein. Some results given as binding are weak or reduced against the parent protein; the word gives no strength.

Protein sequences, listed by entry. Tags and fused reporters are not part of them.
UniProt P08047: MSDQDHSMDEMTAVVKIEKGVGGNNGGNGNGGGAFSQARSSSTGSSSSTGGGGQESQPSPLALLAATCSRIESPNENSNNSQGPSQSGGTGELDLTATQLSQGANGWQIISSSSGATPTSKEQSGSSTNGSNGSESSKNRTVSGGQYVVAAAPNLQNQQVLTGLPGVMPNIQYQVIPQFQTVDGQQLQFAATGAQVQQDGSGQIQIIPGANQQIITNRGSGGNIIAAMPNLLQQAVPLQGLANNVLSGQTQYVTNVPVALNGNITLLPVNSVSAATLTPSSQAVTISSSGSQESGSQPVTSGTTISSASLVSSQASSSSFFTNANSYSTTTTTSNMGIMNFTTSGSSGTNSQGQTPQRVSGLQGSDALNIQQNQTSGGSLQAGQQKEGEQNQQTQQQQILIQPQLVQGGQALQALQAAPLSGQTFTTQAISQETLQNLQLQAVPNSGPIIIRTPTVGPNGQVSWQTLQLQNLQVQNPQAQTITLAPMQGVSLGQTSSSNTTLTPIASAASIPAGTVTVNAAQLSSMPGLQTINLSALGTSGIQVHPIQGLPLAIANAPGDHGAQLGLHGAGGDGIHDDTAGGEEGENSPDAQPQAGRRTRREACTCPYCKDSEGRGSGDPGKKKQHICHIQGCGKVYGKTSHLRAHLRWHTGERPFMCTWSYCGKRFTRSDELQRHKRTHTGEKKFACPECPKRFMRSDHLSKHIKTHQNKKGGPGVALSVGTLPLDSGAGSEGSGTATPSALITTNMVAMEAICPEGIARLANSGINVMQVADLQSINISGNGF
UniProt Q15796: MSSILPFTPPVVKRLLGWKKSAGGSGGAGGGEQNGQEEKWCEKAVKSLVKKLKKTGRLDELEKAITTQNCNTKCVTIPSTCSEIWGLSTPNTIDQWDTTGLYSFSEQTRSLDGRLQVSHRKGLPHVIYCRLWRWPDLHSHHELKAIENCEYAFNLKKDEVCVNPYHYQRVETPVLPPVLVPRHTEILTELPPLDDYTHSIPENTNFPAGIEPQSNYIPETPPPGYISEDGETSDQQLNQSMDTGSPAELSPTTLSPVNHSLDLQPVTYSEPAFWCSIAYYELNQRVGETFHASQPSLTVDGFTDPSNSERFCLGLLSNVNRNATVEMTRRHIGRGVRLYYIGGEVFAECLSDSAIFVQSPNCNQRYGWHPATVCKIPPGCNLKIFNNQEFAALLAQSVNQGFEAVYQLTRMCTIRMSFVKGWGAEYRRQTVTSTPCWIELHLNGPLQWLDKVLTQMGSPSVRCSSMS
UniProt P84022: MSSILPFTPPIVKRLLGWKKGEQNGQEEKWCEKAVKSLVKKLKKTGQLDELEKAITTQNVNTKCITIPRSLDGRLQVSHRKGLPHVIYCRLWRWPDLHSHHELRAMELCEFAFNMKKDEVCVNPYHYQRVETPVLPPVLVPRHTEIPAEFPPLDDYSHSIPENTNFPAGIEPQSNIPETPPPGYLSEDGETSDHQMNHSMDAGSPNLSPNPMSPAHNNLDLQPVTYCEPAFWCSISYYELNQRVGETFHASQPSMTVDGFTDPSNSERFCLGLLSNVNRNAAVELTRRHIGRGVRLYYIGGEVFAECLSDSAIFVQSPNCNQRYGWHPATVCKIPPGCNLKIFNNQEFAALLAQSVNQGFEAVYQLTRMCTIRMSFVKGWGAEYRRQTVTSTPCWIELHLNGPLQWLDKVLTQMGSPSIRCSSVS

Molecular target: Sp1 (human (endogenous in QGY7701)) (UniProt P08047)
Assay: co-IP; QGY7701 cell lysate; Sp1, P-Smad2 or P-Smad3 antibody or control IgG, agarose-protein G beads, 6 h, washed five times in PBS, eluted in Laemmli buffer, western blotting; reciprocal

## P-Smad2 (from UniProt Q15796 1-467)
  binding: binds

## P-Smad3 (from UniProt P84022 1-425)
  binding: binds
